Some results were stated once for a whole list of compounds, not compound by compound.
Tests used:
Assay type in all cases: in vivo
[1] = system: adult female Tetranychus kanzawai from Okayama Prefecture; assay: Efficacy test against Tetranychus kanzawai (spray on kidney bean plant); details: 125 ppm emulsion sprayed; for insect mortality rate after 3 days: 3 days after spraying; for insect mortality rate after 14 days: 14 days after spraying
[2] = system: adult female Panonychus citri from Kanagawa Prefecture; assay: Efficacy test against Panonychus citri (Kanagawa Prefecture, mandarin orange leaf); details: 125 ppm emulsion sprayed
[3] = system: organic phosphorous-resistant adult female Tetranychus urticae; assay: Efficacy test against Tetranychus urticae (spray on kidney bean plant); details: 125 ppm emulsion sprayed, 25° C., humidity 65%
[4] = system: acaricide-resistant adult female Panonychus citri from Wakayama Prefecture; assay: Efficacy test against acaricide-resistant Panonychus citri (Wakayama Prefecture, mandarin orange leaf); details: 125 ppm emulsion sprayed

CCC(Oc1cc(Cl)c(Br)c(Cl)c1)C(=O)NC(C)(C)c1ccccn1 (stereo not shown) [1-4, 2-(4-bromo-3,5-dichlorophenoxy)-N-[2-(pyridine-2-yl)propan-2-yl]butyramide]
≥ 90%: insect mortality rate after 3 days [1] | insect mortality rate after 14 days [1] | insect mortality rate after 3 days ([2]; 3 days after spraying) | insect mortality rate after 10 days ([2]; 10 days after spraying) | insect mortality rate after 3 days ([3]; 3 days after spraying) | insect mortality rate after 10 days ([3]; after 10 days (so in the source)) | insect mortality rate after 3 days ([4]; 3 days after spraying) | insect mortality rate after 10 days ([4]; 10 days after spraying)

CCC(Oc1cc(Br)nc(C(F)(F)F)c1)C(=O)NC(C)(C)c1ccccn1 (stereo not shown) [2-9, 2-[2-bromo-6-(trifluoromethyl)pyridin-4-yloxy]-N-[2-(pyridin-2-yl)propan-2-yl]butyramide]
≥ 90%: insect mortality rate after 3 days [1] | insect mortality rate after 14 days [1]

Source: US9334259B2, “Aryloxyacetamide compound and pesticide” (Nippon Soda Co., Ltd., priority 2012, dated 2016)
